Compound in this test: Nc1nc2c(ncn2[C@@H]2O[C@H](COP(=O)(O)OP(=O)(O)OP(=O)(O)O)[C@@H](O)[C@H]2O)c(=O)[nH]1 [guanosine triphosphate]
In words: NP40-soluble protein abundance relative to vehicle (solubility fold change) (ratio); higher = more soluble protein in presence of GTP. The method, then: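 Solubility proteome profiling in Jurkat crude lysate. Lysate was treated with Mg-GTP (0.1-10 mM) for 10 min at room temperature and 3 min at 37 °C, then solubilised with 0.8% NP40 and benzonase, followed by ultracentrifugation. Proteins were quantified by TMT10 LC-MS/MS; the value is the NP40-soluble abundance relative to the NP40-processed vehicle, from 3 independent experiments.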

Sequences of proteins named here, by UniProt entry; tags and fusion partners are left off. A change or cut given only in a name is not applied to a line headed by its entry.
UniProt Q8WZA9: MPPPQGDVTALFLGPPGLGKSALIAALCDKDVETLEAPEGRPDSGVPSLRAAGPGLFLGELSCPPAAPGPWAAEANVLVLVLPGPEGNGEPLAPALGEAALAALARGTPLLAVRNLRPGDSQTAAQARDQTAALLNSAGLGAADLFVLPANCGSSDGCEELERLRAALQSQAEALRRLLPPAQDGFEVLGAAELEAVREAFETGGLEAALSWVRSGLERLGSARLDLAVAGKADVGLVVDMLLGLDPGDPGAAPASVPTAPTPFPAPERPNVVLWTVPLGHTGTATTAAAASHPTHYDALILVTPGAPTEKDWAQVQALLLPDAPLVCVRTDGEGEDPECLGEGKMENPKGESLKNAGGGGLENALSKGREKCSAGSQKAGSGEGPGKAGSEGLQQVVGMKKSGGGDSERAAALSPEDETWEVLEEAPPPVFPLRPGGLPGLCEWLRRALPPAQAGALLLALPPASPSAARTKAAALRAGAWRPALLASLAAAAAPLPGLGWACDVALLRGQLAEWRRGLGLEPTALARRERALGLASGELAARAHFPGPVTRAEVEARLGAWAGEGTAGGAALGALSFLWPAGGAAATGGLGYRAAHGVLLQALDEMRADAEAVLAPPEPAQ
UniProt Q96DA2: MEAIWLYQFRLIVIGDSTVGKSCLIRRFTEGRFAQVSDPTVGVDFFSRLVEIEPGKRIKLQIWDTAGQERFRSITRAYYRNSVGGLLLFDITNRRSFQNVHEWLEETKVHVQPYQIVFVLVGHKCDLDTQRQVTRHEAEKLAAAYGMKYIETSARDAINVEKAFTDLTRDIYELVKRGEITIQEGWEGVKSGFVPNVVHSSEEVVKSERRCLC
UniProt Q8WXF1: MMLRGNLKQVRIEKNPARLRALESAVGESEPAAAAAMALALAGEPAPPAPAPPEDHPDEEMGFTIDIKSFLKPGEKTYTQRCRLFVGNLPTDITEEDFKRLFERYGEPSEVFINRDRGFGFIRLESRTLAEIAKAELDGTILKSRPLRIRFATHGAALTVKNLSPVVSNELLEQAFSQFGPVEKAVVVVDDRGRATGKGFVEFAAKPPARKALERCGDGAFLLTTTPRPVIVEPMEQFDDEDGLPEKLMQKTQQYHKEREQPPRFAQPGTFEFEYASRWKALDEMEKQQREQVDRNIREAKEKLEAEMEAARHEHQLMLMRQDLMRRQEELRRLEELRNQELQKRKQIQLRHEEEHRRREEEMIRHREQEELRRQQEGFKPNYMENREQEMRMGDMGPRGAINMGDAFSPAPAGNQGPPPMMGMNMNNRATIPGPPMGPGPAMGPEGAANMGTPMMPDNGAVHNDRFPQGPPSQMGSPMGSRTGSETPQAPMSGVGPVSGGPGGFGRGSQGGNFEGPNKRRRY
UniProt Q92896: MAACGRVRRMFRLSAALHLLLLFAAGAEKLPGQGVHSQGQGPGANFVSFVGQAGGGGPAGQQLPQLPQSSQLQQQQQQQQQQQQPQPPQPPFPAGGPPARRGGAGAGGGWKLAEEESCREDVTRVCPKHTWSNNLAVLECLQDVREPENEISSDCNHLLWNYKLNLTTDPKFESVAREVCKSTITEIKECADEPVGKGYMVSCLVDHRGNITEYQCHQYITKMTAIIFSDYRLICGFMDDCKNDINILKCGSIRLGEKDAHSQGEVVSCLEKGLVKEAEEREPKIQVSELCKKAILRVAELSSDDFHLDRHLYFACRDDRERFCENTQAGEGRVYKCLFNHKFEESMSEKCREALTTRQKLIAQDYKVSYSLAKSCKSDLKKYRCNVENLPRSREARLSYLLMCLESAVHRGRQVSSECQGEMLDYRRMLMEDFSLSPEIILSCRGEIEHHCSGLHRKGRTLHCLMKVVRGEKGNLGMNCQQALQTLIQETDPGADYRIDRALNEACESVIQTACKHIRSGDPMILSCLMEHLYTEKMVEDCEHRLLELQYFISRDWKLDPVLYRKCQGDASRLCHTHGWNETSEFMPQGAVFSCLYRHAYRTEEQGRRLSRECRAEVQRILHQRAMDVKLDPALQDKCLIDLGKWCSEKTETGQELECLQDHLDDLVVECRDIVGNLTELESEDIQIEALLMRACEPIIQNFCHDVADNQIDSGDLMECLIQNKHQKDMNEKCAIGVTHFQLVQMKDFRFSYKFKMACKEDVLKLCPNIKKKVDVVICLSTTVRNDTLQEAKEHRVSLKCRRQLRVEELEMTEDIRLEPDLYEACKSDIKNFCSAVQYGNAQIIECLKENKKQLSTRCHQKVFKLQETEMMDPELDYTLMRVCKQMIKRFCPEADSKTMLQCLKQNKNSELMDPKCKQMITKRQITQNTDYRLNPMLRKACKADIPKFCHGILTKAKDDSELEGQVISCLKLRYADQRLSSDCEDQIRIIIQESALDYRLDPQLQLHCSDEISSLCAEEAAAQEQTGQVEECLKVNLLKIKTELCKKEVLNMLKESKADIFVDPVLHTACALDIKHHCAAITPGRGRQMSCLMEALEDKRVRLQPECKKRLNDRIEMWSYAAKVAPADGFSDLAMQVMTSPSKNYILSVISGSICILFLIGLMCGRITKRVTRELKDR

The values that follow come from the supplement of paper PMC6411743.

± gives the standard deviation of the averaged measurements. The list shows a part of the results.

UniProt Q8WZA9: the NP40-soluble protein abundance by setting is: (concentration: 0.1mM) 0.944 ± 0.08; (concentration: 0.5mM) 0.906 ± 0.052; (concentration: 1mM) 0.93 ± 0.088; (concentration: 2mM) 0.902 ± 0.074; (concentration: 4mM) 0.895 ± 0.11; (concentration: 6mM) 0.886 ± 0.072. Further, the NP40-soluble protein abundance is, setting by setting: (concentration: 8mM) 0.881 ± 0.072; (concentration: 10mM) 0.906 ± 0.093.
Take RAB39B (UniProt Q96DA2): the NP40-soluble protein abundance reads like this: (concentration: 0.1mM) 1.19 ± 0.072; (concentration: 0.5mM) 1.13 ± 0.12; (concentration: 1mM) 0.932 ± 0.06; (concentration: 2mM) 1.02 ± 0.12; (concentration: 4mM) 0.963 ± 0.15; (concentration: 6mM) 0.926 ± 0.093. Further, the NP40-soluble protein abundance reads like this: (concentration: 8mM) 0.835 ± 0.065; (concentration: 10mM) 0.821 ± 0.13.
As for PSPC1 (UniProt Q8WXF1), the NP40-soluble protein abundance runs as follows: (concentration: 0.1mM) 0.971 ± 0.054; (concentration: 0.5mM) 0.972 ± 0.058; (concentration: 1mM) 0.932 ± 0.069; (concentration: 2mM) 0.939 ± 0.039; (concentration: 4mM) 0.982 ± 0.061; (concentration: 6mM) 0.948 ± 0.052. The NP40-soluble protein abundance (concentration: 8mM) came out at 0.972 ± 0.082 and the NP40-soluble protein abundance (concentration: 10mM) was 0.954 ± 0.071.
As to UniProt Q92896 and related entries, the NP40-soluble protein abundance reads like this: (concentration: 0.1mM) 0.952 ± 0.059; (concentration: 0.5mM) 0.943 ± 0.053; (concentration: 1mM) 0.962 ± 0.057; (concentration: 2mM) 0.922 ± 0.062; (concentration: 4mM) 0.923 ± 0.064; (concentration: 6mM) 0.926 ± 0.062. The NP40-soluble protein abundance reads like this: (concentration: 8mM) 0.948 ± 0.043; (concentration: 10mM) 0.938 ± 0.057.
Consider UniProt Q93084-2, for which the NP40-soluble protein abundance (concentration: 0.1mM) came out at 1.01 ± 0.051; the NP40-soluble protein abundance (concentration: 0.5mM) was 1.03 ± 0.036; the NP40-soluble protein abundance (concentration: 1mM) came to 0.939 ± 0.025; the NP40-soluble protein abundance (concentration: 2mM) stood at 0.944 ± 0.064; the NP40-soluble protein abundance (concentration: 4mM) was 0.952 ± 0.073; the NP40-soluble protein abundance (concentration: 6mM) was determined as 0.95 ± 0.052. In addition, the NP40-soluble protein abundance was determined as 0.934 ± 0.037 (concentration: 8mM) and 0.905 ± 0.059 (concentration: 10mM).
